PubChem BioAssay AID445 (National Center for Advancing Translational Sciences (NCATS), 2006)
Some of the results follow. These are further read-outs of the screen, such as a control signal, another cell line or another target. No call is given for them. Most of these compounds were active or inconclusive in the main read-out, so they are no random draw. Potencies come from curve fits of mixed quality, noted in brackets.

Assay: IkB Signaling
Details: ABC-DLBCL IkBa-CBG/CBR dual luciferase ratio (green luciferase fused to IkBa over red control in OCI-Ly3 lymphoma cells), 4 h
Outline: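 Curves were fitted separately to fusion (green), unfused (red) and ratio luminescence, then classed by r2, magnitude and activity. Cells: OCI-Ly3, 4 h compound plus doxycycline at 37C; 10 uM MG-132 defined full response.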

[1] = measured here: control luc red channel unless noted
[2] = measured here: IkB-luc green channel
[3] = measured here: control luc red channel

## COc1ccc2c(c1)sc1ncc(C(=O)NCc3ccc(OC(C)C)cc3)c(=O)n12
[1]
  AC50: 0.0158 µM [falling, full curve, poor fit]

## O=C(Nc1nnc(-c2ccccc2)o1)c1ccc(Cl)cc1
[2]
  AC50: 10 µM [rising, single point]
[3]
  AC50: 2.51 µM [falling, partial curve]

## CCCOCCOC(=O)c1[nH]c2c(c1C)C(=O)CC(c1cc(OC)ccc1OC)C2 (configuration not stated)
[2]
  AC50: 1 µM [rising, full curve]
[3]
  AC50: 10 µM [rising, partial curve]

## COc1ccc(-c2cc(C(F)(F)F)nc(SCCC(=O)Nc3cc(C)ccc3O)n2)cc1
[2]
  AC50: 15.8 µM [rising, partial curve]
[3]
  AC50: 3.98 µM [rising, partial curve]

## CCOCCCNC(=O)c1[nH]c2cc(C)ccc2c1Sc1ccc(Cl)cc1
[1]
  AC50: 12.6 µM [falling, partial curve]

## COc1ccc(CCNC(=O)c2c(O)nc3c(C)cccn3c2=O)cc1
[1]
  AC50: 39.8 µM [falling, single point]

## COc1ccc(C(=O)N2c3ccccc3C(C)(c3ccc(Cl)cc3)CC2(C)C)cc1 (configuration not stated)
[1]
  AC50: 3.98 µM [falling, partial curve]

## CCOCCc1nn2c(=O)cc(COC(=O)c3ccccc3NC(=O)C3CCCCC3)nc2s1
[1]
  AC50: 2.51 µM [rising, partial curve]

## Oc1ccccc1C1=Nc2nc3ccccc3n2C(c2ccccc2)C1 (configuration not stated)
[1]
  AC50: 3.16 µM [falling, partial curve]

## COc1cccc(-c2nc(SCC(=O)Nc3ccc4c(c3)OCCO4)c(-c3ccccc3)[nH]2)c1
[1]
  AC50: 3.98 µM [falling, full curve]

## COc1cc(NC(=O)c2c(F)c(F)c(F)c(F)c2F)c(OC)cc1Cl
[1]
  AC50: 12.6 µM [falling, partial curve]

## O=C(CC(=O)c1cc(Cl)ccc1O)c1ccccc1
[1]
  AC50: 39.8 µM [rising, single point] [measured here: IkB-luc green channel]

## Cc1ccccc1Nc1c(-c2ccco2)nc2c(C)cccn12
[1]
  AC50: 39.8 µM [falling, single point]

## Cc1ccc(CS(=O)(=O)c2ncc(Cl)c(C(=O)Nc3nc4ccc(C)cc4s3)n2)cc1
[1]
  AC50: 7.94 µM [falling, full curve]

## CCOC(=O)c1sc2ncnc(NCC(c3cccs3)N(C)C)c2c1C (configuration not stated)
[1]
  AC50: 25.1 µM [falling, partial curve]

## Cc1n[nH]c(C)c1S(=O)(=O)N(CC(=O)Nc1ccc(C(F)(F)F)cc1)c1ccc(C(C)C)cc1
[1]
  AC50: 12.6 µM [falling, partial curve]

## CCOC(=O)CCNC(=O)Nc1ccc2nc(C)n(Cc3ccc(Cl)cc3)c(=O)c2c1
[1]
  AC50: 31.6 µM [falling, partial curve]

## COc1ccc(C)c2sc(N(Cc3cccnc3)C(=O)C3CCCCC3)nc12
[1]
  AC50: 7.94 µM [falling, partial curve]

## CCOC(=O)c1ccc(N2C(=O)c3n[nH]c(-c4ccco4)c3C2c2ccc(O)cc2)cc1 (configuration not stated)
[1]
  AC50: 25.1 µM [falling, single point]

## c1coc(CNc2nc(-c3ccncc3)cs2)c1
[1]
  AC50: 20 µM [falling, single point]

## COc1ccc(C)cc1NC(=O)c1c(C)oc2ncn(CC(C)C)c(=O)c12
[1]
  AC50: 39.8 µM [falling, single point]

## Cc1ccc(CSCC(=O)N2CCN(c3ccccc3F)CC2)cc1
[1]
  AC50: 25.1 µM [falling, single point]

## Cc1ccc(S(=O)(=O)CC(=O)Nc2sc3c(c2C#N)CCCC3)cc1
[1]
  AC50: 5.01 µM [rising, partial curve]

## Cc1cc(C2CCCCC2)n(O)c(=O)c1
[1]
  AC50: 10 µM [rising, partial curve] [measured here: IkB-luc green channel]

## O=C(Nc1ccc(Cl)cc1)N1CCC(c2nc(-c3ccc(F)cc3)no2)CC1
[2]
  AC50: 10 µM [falling, partial curve, poor fit]
[3]
  AC50: 12.6 µM [falling, partial curve]

## COc1ccc(-c2cn3c(C)c(C(=O)Nc4cccc(C)n4)sc3n2)cc1
[1]
  AC50: 0.398 µM [falling, full curve]

## Cc1ccccc1NC(=O)Cn1c(=O)oc2cc(Br)ccc21
[1]
  AC50: 2 µM [falling, partial curve]

## COc1ccc(N(CC(=O)Nc2cccc(Cl)c2C)S(=O)(=O)c2c(C)nn(C)c2C)cc1
[1]
  AC50: 12.6 µM [falling, partial curve]

## COc1ccc(C2=C(C)C(=NCCCN3CCN(c4cc(C)ccc4C)CC3)NS2(=O)=O)cc1
[1]
  AC50: 0.251 µM [falling, partial curve]

## O=C(c1cc2c(s1)-c1ccccc1OC2)N1CCN(c2ccccc2F)CC1
[1]
  AC50: 12.6 µM [falling, partial curve]

## CCCCN(CC)CCCNC(=O)c1nn(C)c2c1CS(=O)(=O)c1ccccc1-2
[1]
  AC50: 25.1 µM [falling, single point]

## CCOC(=O)C1CCCN(c2cc(C)nc3c(-c4ccccc4OC)c(C)nn23)C1 (configuration not stated)
[1]
  AC50: 39.8 µM [falling, single point]

## Cc1cccc2cc(CN(Cc3cccs3)C(c3nnnn3C3CCCC3)C(C)C)c(=O)[nH]c12 (configuration not stated)
[1]
  AC50: 3.98 µM [falling, partial curve]

## O=C(Nc1cccc(OCc2cc(=O)n3c4c(sc3n2)CCCC4)c1)c1ccc(F)cc1
[1]
  AC50: 1 µM [falling, single point]

## Cc1ccc2nc(-c3cc(NC(=O)/C=C/c4ccccc4)ccc3Cl)oc2c1
[1]
  AC50: 5.01 µM [falling, partial curve]

## CCOc1ccc(-c2nnc(SCC(=O)NCCc3ccc(OC)c(OC)c3)nc2-c2ccc(OCC)cc2)cc1
[1]
  AC50: 39.8 µM [falling, partial curve, poor fit]

## COc1ccc(C(=O)Nc2ccc3nc(N4CCC(C)CC4)cc(C)c3c2)cc1
[1]
  AC50: 0.398 µM [falling, single point]

## COc1ccc(Cl)cc1-n1c(/C=C/c2cccc3ccccc23)nc2ccccc2c1=O
[1]
  AC50: 31.6 µM [falling, single point]
